Laboratory results taken from the supplement of paper PMC7661543.
± gives the standard deviation of the averaged measurements. The effect of the compound repeats well; differences between the knockouts mostly do not.

System: HCC-38
Assay: relative cell number vs DMSO control (72 h) (% of DMSO); higher = less growth inhibition (more cells)
Method: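 QMAP-Seq: a pool of 5 breast cancer cell lines (ZR-75-1, SKBR3, HCC-38, MDA-MB-231, BT-20), each carrying 12 doxycycline-inducible Cas9 sgRNA perturbations (11 knockouts plus non-targeting sgNT), was treated with compounds for 72 h at four 10-fold doses (10 nM-10 uM or 1 nM-1 uM range). Barcodes were amplified and sequenced, and cell number was interpolated from 293T spike-in standard curves. The result is expressed as % of the median of DMSO wells. Two biological replicates.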

CC(C)(C)c1ccc(S(=O)(=O)NCc2ccc(C(=O)Nc3cccnc3)cc2)cc1 [STF31]
Details | relative cell number
sgRNA knockout: sgATF3, 10 nM | 96.3 ± 8.2
sgRNA knockout: sgATF3, 100 nM | 79.9 ± 9
sgRNA knockout: sgATF3, 1000 nM | 86.9 ± 6.7
sgRNA knockout: sgATF3, 10000 nM | 74.7 ± 12
sgRNA knockout: sgATF4, 10 nM | 91 ± 6.3
sgRNA knockout: sgATF4, 100 nM | 77.6 ± 2.1
sgRNA knockout: sgATF4, 1000 nM | 92.9 ± 7.1
sgRNA knockout: sgATF4, 10000 nM | 74.9 ± 6.4
sgRNA knockout: sgATF6, 10 nM | 106 ± 13
sgRNA knockout: sgATF6, 100 nM | 96.2 ± 15
sgRNA knockout: sgATF6, 1000 nM | 86.5 ± 3.3
sgRNA knockout: sgATF6, 10000 nM | 69.8 ± 7.8
sgRNA knockout: sgATG7, 10 nM | 93.6 ± 4.6
sgRNA knockout: sgATG7, 100 nM | 78.325 ± 0.0047
sgRNA knockout: sgATG7, 1000 nM | 93.8 ± 14
sgRNA knockout: sgATG7, 10000 nM | 77.3 ± 4.6
sgRNA knockout: sgERN1, 10 nM | 96.7 ± 11
sgRNA knockout: sgERN1, 100 nM | 83.44 ± 0.59
sgRNA knockout: sgERN1, 1000 nM | 84.8 ± 2.1
sgRNA knockout: sgERN1, 10000 nM | 74.6 ± 3
sgRNA knockout: sgHSF1, 10 nM | 107 ± 13
sgRNA knockout: sgHSF1, 100 nM | 103 ± 1.8
sgRNA knockout: sgHSF1, 1000 nM | 78 ± 1.7
sgRNA knockout: sgHSF1, 10000 nM | 61 ± 4.5
sgRNA knockout: sgHSF2, 10 nM | 102 ± 11
sgRNA knockout: sgHSF2, 100 nM | 81.6 ± 5
sgRNA knockout: sgHSF2, 1000 nM | 91.7 ± 7.9
sgRNA knockout: sgHSF2, 10000 nM | 77.8 ± 7.2
sgRNA knockout: sgKEAP1, 10 nM | 132 ± 1.7
sgRNA knockout: sgKEAP1, 100 nM | 94.7 ± 16
sgRNA knockout: sgKEAP1, 1000 nM | 70.9 ± 18
sgRNA knockout: sgKEAP1, 10000 nM | 85.8 ± 5.4
sgRNA knockout: sgNFE2L2, 10 nM | 79.5 ± 11
sgRNA knockout: sgNFE2L2, 100 nM | 70.4 ± 3.4
sgRNA knockout: sgNFE2L2, 1000 nM | 86.5 ± 2.8
sgRNA knockout: sgNFE2L2, 10000 nM | 76.4 ± 11
sgRNA knockout: sgSLC35F2, 10 nM | 85.1 ± 3
sgRNA knockout: sgSLC35F2, 100 nM | 83.2 ± 2.6
sgRNA knockout: sgSLC35F2, 1000 nM | 92.5 ± 1.2
sgRNA knockout: sgSLC35F2, 10000 nM | 72.1 ± 6.7
sgRNA knockout: sgXBP1, 10 nM | 90.4 ± 4
sgRNA knockout: sgXBP1, 100 nM | 75.4 ± 2
sgRNA knockout: sgXBP1, 1000 nM | 95.5 ± 17
sgRNA knockout: sgXBP1, 10000 nM | 73.3 ± 7.5

Cc1c(Cn2c(C)nc3c(C(=O)O)cc(N4CCOCC4)cc32)cccc1C(F)(F)F
Details | relative cell number
sgRNA knockout: sgATF3, 10 nM | 106.8 ± 0.3
sgRNA knockout: sgATF3, 100 nM | 88.8 ± 4.4
sgRNA knockout: sgATF3, 1000 nM | 106 ± 16
sgRNA knockout: sgATF3, 10000 nM | 117 ± 4.8
sgRNA knockout: sgATF4, 10 nM | 99.4 ± 5.7
sgRNA knockout: sgATF4, 100 nM | 81.8 ± 0.88
sgRNA knockout: sgATF4, 1000 nM | 115 ± 21
sgRNA knockout: sgATF4, 10000 nM | 96.8 ± 2
sgRNA knockout: sgATF6, 10 nM | 107 ± 9.1
sgRNA knockout: sgATF6, 100 nM | 113 ± 12
sgRNA knockout: sgATF6, 1000 nM | 98.4 ± 13
sgRNA knockout: sgATF6, 10000 nM | 88.5 ± 5.3
sgRNA knockout: sgATG7, 10 nM | 102 ± 6.3
sgRNA knockout: sgATG7, 100 nM | 86 ± 8
sgRNA knockout: sgATG7, 1000 nM | 111 ± 10
sgRNA knockout: sgATG7, 10000 nM | 101 ± 11
sgRNA knockout: sgERN1, 10 nM | 93.2 ± 1.7
sgRNA knockout: sgERN1, 100 nM | 90.6 ± 2.6
sgRNA knockout: sgERN1, 1000 nM | 108 ± 14
sgRNA knockout: sgERN1, 10000 nM | 108 ± 6.6
sgRNA knockout: sgHSF1, 10 nM | 111 ± 8.1
sgRNA knockout: sgHSF1, 100 nM | 130 ± 15
sgRNA knockout: sgHSF1, 1000 nM | 111 ± 0.33
sgRNA knockout: sgHSF1, 10000 nM | 111.5 ± 0.33
sgRNA knockout: sgHSF2, 10 nM | 116 ± 8.1
sgRNA knockout: sgHSF2, 100 nM | 94.53 ± 0.44
sgRNA knockout: sgHSF2, 1000 nM | 119 ± 22
sgRNA knockout: sgHSF2, 10000 nM | 113 ± 11
sgRNA knockout: sgKEAP1, 10 nM | 119 ± 7.5
sgRNA knockout: sgKEAP1, 100 nM | 129 ± 16
sgRNA knockout: sgKEAP1, 1000 nM | 103 ± 3.3
sgRNA knockout: sgKEAP1, 10000 nM | 125 ± 5
sgRNA knockout: sgNFE2L2, 10 nM | 110 ± 6.9
sgRNA knockout: sgNFE2L2, 100 nM | 72.9 ± 2.4
sgRNA knockout: sgNFE2L2, 1000 nM | 112 ± 36
sgRNA knockout: sgNFE2L2, 10000 nM | 103 ± 3.3
sgRNA knockout: sgSLC35F2, 10 nM | 103 ± 4.4
sgRNA knockout: sgSLC35F2, 100 nM | 91.5 ± 2.7
sgRNA knockout: sgSLC35F2, 1000 nM | 105 ± 6.6
sgRNA knockout: sgSLC35F2, 10000 nM | 106 ± 1.3
sgRNA knockout: sgXBP1, 10 nM | 116 ± 9.2
sgRNA knockout: sgXBP1, 100 nM | 83.9 ± 1.8
sgRNA knockout: sgXBP1, 1000 nM | 119 ± 28
sgRNA knockout: sgXBP1, 10000 nM | 111 ± 9.6

C#Cc1cccc(Nc2ncnc3cc(OCCOC)c(OCCOC)cc23)c1 [Erlotinib]
Details | relative cell number
sgRNA knockout: sgATF3, 10 nM | 111 ± 8.1
sgRNA knockout: sgATF3, 100 nM | 87.8 ± 10
sgRNA knockout: sgATF3, 1000 nM | 105 ± 5
sgRNA knockout: sgATF3, 10000 nM | 96.5 ± 7.4
sgRNA knockout: sgATF4, 10 nM | 112 ± 2.6
sgRNA knockout: sgATF4, 100 nM | 94.2 ± 3.7
sgRNA knockout: sgATF4, 1000 nM | 103.1 ± 0.9
sgRNA knockout: sgATF4, 10000 nM | 87.62 ± 0.71
sgRNA knockout: sgATF6, 10 nM | 107 ± 21
sgRNA knockout: sgATF6, 100 nM | 101 ± 6.5
sgRNA knockout: sgATF6, 1000 nM | 116 ± 14
sgRNA knockout: sgATF6, 10000 nM | 97.1 ± 14
sgRNA knockout: sgATG7, 10 nM | 107 ± 11
sgRNA knockout: sgATG7, 100 nM | 87.9 ± 6.8
sgRNA knockout: sgATG7, 1000 nM | 104 ± 3.4
sgRNA knockout: sgATG7, 10000 nM | 90.5 ± 11
sgRNA knockout: sgERN1, 10 nM | 108 ± 1.9
sgRNA knockout: sgERN1, 100 nM | 90 ± 4
sgRNA knockout: sgERN1, 1000 nM | 105 ± 7.5
sgRNA knockout: sgERN1, 10000 nM | 99.1 ± 13
sgRNA knockout: sgHSF1, 10 nM | 125 ± 4.4
sgRNA knockout: sgHSF1, 100 nM | 85.5 ± 6.6
sgRNA knockout: sgHSF1, 1000 nM | 107 ± 39
sgRNA knockout: sgHSF1, 10000 nM | 97.7 ± 3.5
sgRNA knockout: sgHSF2, 10 nM | 117 ± 5
sgRNA knockout: sgHSF2, 100 nM | 97.3 ± 10
sgRNA knockout: sgHSF2, 1000 nM | 102 ± 4.3
sgRNA knockout: sgHSF2, 10000 nM | 103 ± 15
sgRNA knockout: sgKEAP1, 10 nM | 128.2 ± 0.19
sgRNA knockout: sgKEAP1, 100 nM | 99.1 ± 4.7
sgRNA knockout: sgKEAP1, 1000 nM | 101 ± 22
sgRNA knockout: sgKEAP1, 10000 nM | 84.8 ± 27
sgRNA knockout: sgNFE2L2, 10 nM | 104 ± 2.1
sgRNA knockout: sgNFE2L2, 100 nM | 87.8 ± 9.8
sgRNA knockout: sgNFE2L2, 1000 nM | 97.6 ± 2.8
sgRNA knockout: sgNFE2L2, 10000 nM | 85.9 ± 1.6
sgRNA knockout: sgSLC35F2, 10 nM | 107 ± 4.8
sgRNA knockout: sgSLC35F2, 100 nM | 90.8 ± 8.8
sgRNA knockout: sgSLC35F2, 1000 nM | 104 ± 5.3
sgRNA knockout: sgSLC35F2, 10000 nM | 105 ± 2.8
sgRNA knockout: sgXBP1, 10 nM | 106 ± 8.8
sgRNA knockout: sgXBP1, 100 nM | 92 ± 7.5
sgRNA knockout: sgXBP1, 1000 nM | 102 ± 1.5
sgRNA knockout: sgXBP1, 10000 nM | 93.88 ± 0.53
